# Hit rate of the full screen: of about 330,000 compounds, about 7,700 (2.3%) were called active. The shares of active, inactive and inconclusive entries below differ from those in the screen. The call rests on the fitted dose curve; in most records, active means well fitted inhibition curve with a large enough effect; inconclusive means small, poorly fitted or top-dose-only effect, or effect the other way; inactive means flat fitted curve, though single readings scatter. Potencies of inconclusive entries are doubtful fits and often do not repeat.
# Experiment: qHTS screen for small molecules that inhibit ELG1-dependent DNA repair in human embryonic kidney (HEK293T) cells expressing luciferase-tagged ELG1; further: nearly all actives have a fitted effect of over 55% in size
# Conditions: HEK293T ELG1-luciferase reporter, luminescence, 16 h, DNA damage induced by 5-fluorouridine; activity change, negative = inhibition: at 46.1 µM (top of the series)
# Outline: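 5-Fluorouridine DNA damage + compound/DMSO, 2,000 cells/well, 16 h, 37 °C/5% CO2. ONE-Glo, 30 min RT, luminescence. Readout = decrease in reporter signal.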
# On the % scale 0 is the no-effect control and ±100 the full control effect; potency means the concentration at half of the fitted maximal effect.
SMILES,Potency,"activity change, negative = inhibition"
CCOC(=O)Cc1c(C)nc2c(-c3cccc(Br)c3)c[nH]n2c1=O,active: 16.4 µM,–
C/C(CCN1CCCCc2nc(C)c(C)cc21)=N\O[C@H](C)c1cn([C@H](CO)Cc2ccccc2)nn1,–,inactive: -11.2%
COc1cc(C(=O)OCC(=O)Nc2cc(-c3cc(C)c(C)cc3C)nn2-c2ccccc2)cc(OC)c1OC,"inconclusive: 2.31 µM [inhibitor, partial curve, poor fit]",–
CCN(CC)CCN1C(=O)C(=O)/C(=C(/O)c2cnn(-c3ccccc3)c2C)C1c1cccs1 (stereo not drawn),"inconclusive: 16.4 µM [activator, partial curve]",–
O=C(Nc1ccc(SC(F)F)cc1)c1ccccc1F,"inconclusive: 8.2 µM [activator, partial curve]",–
CC(Cc1ccco1)NC(=O)c1ccc(C(F)(F)F)cc1 (stereo not drawn),"inconclusive: 8.2 µM [activator, partial curve]",–
CN1CCC(=NNc2ncnc3sc4c(c23)CCCC4)CC1,"inconclusive: 20.6 µM [inhibitor, partial curve, poor fit]",–
Cc1cccc(NC(=O)C2=C(O)c3ccccc3N(C)S2(=O)=O)c1,–,inactive: 11.2%
Cc1[nH]n(-c2ccccc2)c(=O)c1/C=N/Nc1nncc(-c2ccccc2)n1,"inconclusive: 4.61 µM [inhibitor, single point]",–
Nn1cnnc1SCC(=O)Nc1ccc2c(c1)OCCO2,"inconclusive: 9.2 µM [activator, partial curve]",–
CCc1c(C)nc2ncnn2c1N1CCC(C(=O)Nc2cccc(C(C)=O)c2)CC1,"inconclusive: 20.6 µM [inhibitor, single point]",–
CCCNc1nc(C)cc(-c2cc(-c3ccc(Cl)cc3)on2)n1,"inconclusive: 16.4 µM [activator, single point]",–
CCN1CCN(Cc2cccc(Oc3ccc(Cl)cc3)c2)CC1,–,inactive: -9.58%
COc1ccc(-c2csc(-c3cccs3)n2)cc1OC,"inconclusive: 18.3 µM [activator, partial curve]",–
Nc1ccc(C(=O)N2CCN(S(=O)(=O)c3ccc(Cl)cc3)CC2)cc1[N+](=O)[O-],"inconclusive: 29.1 µM [inhibitor, single point]",–
CCOC(=O)CN1CC23C=CC(O2)C(C(=O)Nc2ccc(OCC)cc2)C3C1=O (stereo not drawn),"inconclusive: 0.103 µM [activator, full curve, poor fit]",–
Clc1ccc(CON/C=N/c2ncnc3sccc23)c(Cl)c1,–,inactive: -26.1%
Cc1ccc(-n2ncc(-c3nn[nH]n3)c2N)cc1,–,inactive: 18.7%
C=CC[C@H]1Cc2c(cccc2[N+](=O)[O-])[C@H](CC=C)N1,"inconclusive: 6.51 µM [inhibitor, single point]",–
O=C(c1cccs1)N1CCN(c2ccc([N+](=O)[O-])cc2F)CC1,–,inactive: -6.46%
COc1ccc(CCNC(=O)/C(C#N)=C/c2ccc(OCC(=O)NCC3CCCO3)cc2)cc1OC (stereo not drawn),"inconclusive: 25.9 µM [inhibitor, partial curve, poor fit]",–
CC(C(=O)Nc1ccc(S(=O)(=O)N2CCCC2)cc1)N(C)Cc1ccc(F)cc1 (stereo not drawn),"inconclusive: 29.1 µM [inhibitor, single point]",–
O=C(OCCCN1CCOCC1)c1ccc(O)c(O)c1,"inconclusive: 20.6 µM [activator, single point]",–

# Two successive records out of the list so far, for reference:
SMILES,Potency,"activity change, negative = inhibition"
CCOC(=O)Cc1c(C)nc2c(-c3cccc(Br)c3)c[nH]n2c1=O,active: 16.4 µM,–
C/C(CCN1CCCCc2nc(C)c(C)cc21)=N\O[C@H](C)c1cn([C@H](CO)Cc2ccccc2)nn1,–,inactive: -11.2%

# Remaining list, next part:

SMILES,Potency,"activity change, negative = inhibition"
COc1ccc(-n2cnc3sc4c(c3c2=O)CCCC4)cc1,"inconclusive: 18.3 µM [activator, single point]",–
CS(=O)(=O)c1ccc(-c2nnn(CC(=O)Nc3ccc4c(c3)OCCO4)n2)cc1,"inconclusive: 23.1 µM [activator, single point]",–
Cc1cccc(OCC(=O)Nc2cccc(C(=O)Nc3ccccc3C(=O)O)c2)c1,–,inactive: 10.8%
Nc1nccc(/C=C/c2c(F)cccc2Cl)n1,"inconclusive: 20.6 µM [activator, single point]",–
COc1ccccc1N(CC(=O)NCc1ccc(F)cc1)C(=O)CCC(=O)Nc1ccccn1,–,inactive: 9.68%
COc1ccc(NC(=O)Cc2c(F)cccc2Cl)cc1,"inconclusive: 20.6 µM [activator, partial curve]",–
CN(C)c1ccc(/C=N/N2C(=S)SC(C)(C)C2N(O)C(=O)Nc2ccc([N+](=O)[O-])cc2)cc1 (stereo not drawn),"inconclusive: 32.6 µM [inhibitor, single point]",–
CCN(CC(=O)Nc1c(F)cccc1F)C(=O)/C=C/c1cn(Cc2ccccc2)nc1-c1cccnc1,"inconclusive: 7.3 µM [inhibitor, partial curve, poor fit]",–
O=C(Nc1ccc(OCC(=O)N2CCOCC2)cc1)c1cccc(Cl)c1,"inconclusive: 23.1 µM [activator, single point]",–
CCN(CC)CCSc1nc(O)c(C(C)C)c(=O)[nH]1,"inconclusive: 18.4 µM [activator, single point]",–
CCOC(=O)C1=C(N)N(c2ccc(C)cc2)C2=C(C(=O)CCC2)C1c1cccs1 (stereo not drawn),"inconclusive: 29.1 µM [inhibitor, single point]",–
CCC(Oc1ccccc1)C(=O)Nc1cc(C)on1 (stereo not drawn),"inconclusive: 5.8 µM [activator, partial curve, poor fit]",–
Cc1cc(-c2ccc(S(=O)(=O)N3CCN(C)CC3)s2)on1,–,inactive: -1.3%
O=C(COc1ccc(Cl)cc1Cl)Nn1c(=S)[nH]c2ncccc2c1=O,–,inactive: 4.25%
Cc1cccc(-c2cccc(NC(=O)C3CCCN(Cc4cccnc4)C3)c2)c1 (stereo not drawn),"inconclusive: 29.1 µM [inhibitor, single point]",–
CC(C)C(=O)Nc1cccc(NC(=O)c2ccc([N+](=O)[O-])cc2Cl)c1,"inconclusive: 29.1 µM [inhibitor, single point]",–
C/C(=N\NC(=S)NC1CCCCC1)c1ccc(Cl)c(Cl)c1,"inconclusive: 20.6 µM [activator, partial curve, poor fit]",–
COc1ccccc1NCC(=O)c1ccc(Cl)cc1,–,inactive: -0.423%
O=C(CCN1C(=O)c2ccncc2C1=O)Nc1ccc2c(c1)OCCO2,"inconclusive: 29.1 µM [activator, partial curve, poor fit]",–
CCOC(=O)c1c(NC(=O)c2ccc(N3C(=O)C4C5C=CC(C5)C4C3=O)cc2)sc2c1CCCC2 (stereo not drawn),"inconclusive: 25.9 µM [inhibitor, single point]",–
Nc1nc(C2CC2)c(Sc2sc(N)nc2C2CC2)s1,–,inactive: -2.04%
Cc1ccc(S(=O)(=O)N2CCN(C(=O)c3c(-c4ccccc4)noc3C)CC2)cc1C,–,inactive: -0.204%
O=[N+]([O-])c1ccc(/C=N/n2cnc3ccccc32)s1,"inconclusive: 13 µM [inhibitor, partial curve, poor fit]",–

SMILES,Potency,"activity change, negative = inhibition"
Cn1ccnc1C(=O)c1cc(SCC(=O)NCc2ccccc2)nc2ccccc12,active: 8.2 µM,–
Cn1c(=O)c2c(nc(NCc3ccc4c(c3)OCO4)n2Cc2ccc(F)cc2)n(C)c1=O,"inconclusive: 25.1 µM [inhibitor, single point]",–
COc1cc2c(cc1OC)C1(CCCC1)CNC2C (stereo not drawn),"inconclusive: 13 µM [inhibitor, partial curve]",–
O=C(CCc1ccccc1)NC(c1cccs1)c1cc(Cl)c2cccnc2c1O (stereo not drawn),"inconclusive: 2.06 µM [inhibitor, partial curve]",–
CC(C)Cc1nnc(NC(=O)CCC(=O)N2CCN(Cc3ccc(F)cc3)CC2)s1,"inconclusive: 16.4 µM [inhibitor, partial curve, poor fit]",–
Cc1ccc(-c2cc(-c3cccs3)[nH]n2)c(O)c1,"inconclusive: 4.61 µM [activator, partial curve]",–
CC(C)Cn1cc(C(=O)NCC2CCCO2)c2c3ccccc3n(C)c2c1=O (stereo not drawn),"inconclusive: 18.4 µM [inhibitor, partial curve]",–
Cc1c(C(=O)OCC(C)C)[nH]c2c1C(=O)CC(c1cccs1)C2 (stereo not drawn),–,inactive: -1.88%
O=C(CCCOc1ccc(Cl)cc1Cl)N/N=C/c1ccccc1,–,inactive: 9.11%
CC(=O)Nc1nc2c(ccc3ccccc32)s1,"inconclusive: 20.6 µM [activator, single point]",–
Cc1cc(C)c(NC(=O)CNC(=O)COC(=O)Cc2cccs2)c(C)c1,–,inactive: 0.209%
Clc1ccc(-c2nc3n(n2)Cc2ccccc2-3)cc1,"inconclusive: 1.64 µM [activator, partial curve]",–
O=C(COc1cccc2c1CCN(Cc1ccccc1)C2=O)NCc1ccco1,"inconclusive: 23.1 µM [inhibitor, partial curve, poor fit]",–
O=C(Nc1nc(COc2ccccc2)cs1)c1ccccc1F,"inconclusive: 18.4 µM [activator, single point]",–
COc1cn(-c2ccccc2)nc1C(=O)Nc1ccccc1,"inconclusive: 23.1 µM [activator, partial curve, poor fit]",–
COc1cccc(NC(=O)N(Cc2cc3cc(C)cc(C)c3[nH]c2=O)CC2COCCO2)c1 (stereo not drawn),active: 7.31 µM,–
O=C(Oc1ccc(Oc2ccccc2)cc1)N1CCC(O)CC1,"inconclusive: 2.91 µM [activator, full curve, poor fit]",–
CC(C)Cc1ccc(CN2CCCC(NC(=O)c3ccnn3C)C2)cc1 (stereo not drawn),–,inactive: 21%
Cc1cc2nc(-c3ccc(SCc4ccc(C(=O)O)cc4)nc3)[nH]c2cc1C,"inconclusive: 8.2 µM [activator, partial curve]",–
COc1ccc(/C=C/C(=O)O)cc1S(=O)(=O)N1CCCC1,–,inactive: 4.66%
CC1(C)CC(=O)C(=Cc2cn(-c3ccccc3)nc2-c2ccc(Cl)cc2)C(=O)C1,"inconclusive: 2.82 µM [activator, full curve]",–
CSc1ccccc1OCc1cc(C(=O)NCCN2CCCc3ccccc32)no1,"inconclusive: 25.9 µM [inhibitor, partial curve]",–

# From PubChem BioAssay AID504467 (National Center for Advancing Translational Sciences (NCATS), 2011)
